From paper doi:10.1101/2025.05.20.655083
Where two headings read alike, the source gives them in different places. Results are given in words; binding and its absence hold for the method and conditions named. Some binding calls cover weakened binding; strength is not graded here.

Chains of the proteins cited; added tags and fusions are not shown.
UniProt Q92973: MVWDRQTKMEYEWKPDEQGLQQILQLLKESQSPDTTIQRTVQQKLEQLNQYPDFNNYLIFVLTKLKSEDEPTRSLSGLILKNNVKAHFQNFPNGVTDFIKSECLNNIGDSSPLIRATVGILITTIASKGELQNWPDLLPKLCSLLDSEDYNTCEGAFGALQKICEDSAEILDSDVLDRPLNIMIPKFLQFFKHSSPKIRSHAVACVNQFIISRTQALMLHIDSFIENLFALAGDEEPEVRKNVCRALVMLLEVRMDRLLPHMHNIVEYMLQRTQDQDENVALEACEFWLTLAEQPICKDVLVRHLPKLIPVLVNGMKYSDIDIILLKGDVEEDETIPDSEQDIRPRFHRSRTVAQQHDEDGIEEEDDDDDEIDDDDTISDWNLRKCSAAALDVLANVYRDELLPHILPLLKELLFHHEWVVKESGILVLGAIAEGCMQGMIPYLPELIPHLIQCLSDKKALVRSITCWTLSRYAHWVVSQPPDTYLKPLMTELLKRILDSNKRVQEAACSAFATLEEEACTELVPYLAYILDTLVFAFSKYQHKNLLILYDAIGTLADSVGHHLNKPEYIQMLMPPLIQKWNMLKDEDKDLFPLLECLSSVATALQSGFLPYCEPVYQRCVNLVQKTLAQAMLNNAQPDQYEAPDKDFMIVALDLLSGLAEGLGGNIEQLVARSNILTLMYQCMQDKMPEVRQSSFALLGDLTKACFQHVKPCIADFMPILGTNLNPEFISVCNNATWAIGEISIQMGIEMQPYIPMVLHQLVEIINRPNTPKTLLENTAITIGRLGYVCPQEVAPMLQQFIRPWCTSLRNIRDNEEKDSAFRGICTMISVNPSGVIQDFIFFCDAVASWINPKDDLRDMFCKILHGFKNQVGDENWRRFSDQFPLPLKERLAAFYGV
UniProt Q14974: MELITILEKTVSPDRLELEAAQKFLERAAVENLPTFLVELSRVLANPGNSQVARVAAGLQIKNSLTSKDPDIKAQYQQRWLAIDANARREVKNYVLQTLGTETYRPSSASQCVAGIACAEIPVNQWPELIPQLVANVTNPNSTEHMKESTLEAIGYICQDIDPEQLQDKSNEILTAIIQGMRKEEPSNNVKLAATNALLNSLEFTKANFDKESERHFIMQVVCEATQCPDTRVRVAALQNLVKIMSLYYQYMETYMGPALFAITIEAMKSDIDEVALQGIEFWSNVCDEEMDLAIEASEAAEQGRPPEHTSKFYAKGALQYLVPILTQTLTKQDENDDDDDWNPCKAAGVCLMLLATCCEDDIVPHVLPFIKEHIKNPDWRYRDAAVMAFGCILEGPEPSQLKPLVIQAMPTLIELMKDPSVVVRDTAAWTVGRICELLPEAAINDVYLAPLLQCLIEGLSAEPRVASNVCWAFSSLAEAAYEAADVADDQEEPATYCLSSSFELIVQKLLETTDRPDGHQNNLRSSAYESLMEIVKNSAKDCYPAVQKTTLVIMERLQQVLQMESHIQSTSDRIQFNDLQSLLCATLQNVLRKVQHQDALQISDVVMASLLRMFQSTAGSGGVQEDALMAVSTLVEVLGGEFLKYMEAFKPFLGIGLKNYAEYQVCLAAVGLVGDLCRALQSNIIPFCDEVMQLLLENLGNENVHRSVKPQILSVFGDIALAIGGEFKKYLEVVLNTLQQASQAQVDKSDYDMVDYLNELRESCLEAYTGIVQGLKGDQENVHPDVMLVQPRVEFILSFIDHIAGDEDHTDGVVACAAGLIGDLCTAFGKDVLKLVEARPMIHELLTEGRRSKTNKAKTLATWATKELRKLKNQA

B1: human importin β3 (protein, UniProt O00410 1-1097)
chain: MAAAAAEQQQFYLLLGNLLSPDNVVRKQAEETYENIPGQSKITFLLQAIRNTTAAEEARQMAAVLLRRLLSSAFDEVYPALPSDVQTAIKSELLMIIQMETQSSMRKKVCDIAAELARNLIDEDGNNQWPEGLKFLFDSVSSQNVGLREAALHIFWNFPGIFGNQQQHYLDVIKRMLVQCMQDQEHPSIRTLSARATAAFILANEHNVALFKHFADLLPGFLQAVNDSCYQNDDSVLKSLVEIADTVPKYLRPHLEATLQLSLKLCGDTSLNNMQRQLALEVIVTLSETAAAMLRKHTNIVAQTIPQMLAMMVDLEEDEDWANADELEDDDFDSNAVAGESALDRMACGLGGKLVLPMIKEHIMQMLQNPDWKYRHAGLMALSAIGEGCHQQMEGILNEIVNFVLLFLQDPHPRVRYAACNAVGQMATDFAPGFQKKFHEKVIAALLQTMEDQGNQRVQAHAAAALINFTEDCPKSLLIPYLDNLVKHLHSIMVLKLQELIQKGTKLVLEQVVTSIASVADTAEEKFVPYYDLFMPSLKHIVENAVQKELRLLRGKTIECISLIGLAVGKEKFMQDASDVMQLLLKTQTDFNDMEDDDPQISYMISAWARMCKILGKEFQQYLPVVMGPLMKTASIKPEVALLDTQDMENMSDDDGWEFVNLGDQQSFGIKTAGLEEKSTACQMLVCYAKELKEGFVEYTEQVVKLMVPLLKFYFHDGVRVAAAESMPLLLECARVRGPEYLTQMWHFMCDALIKAIGTEPDSDVLSEIMHSFAKCIEVMGDGCLNNEHFEELGGILKAKLEEHFKNQELRQVKRQDEDYDEQVEESLQDEDDNDVYILTKVSDILHSIFSSYKEKVLPWFEQLLPLIVNLICPHRPWPDRQWGLCIFDDVIEHCSPASFKYAEYFLRPMLQYVCDNSPEVRQAAAYGLGVMAQYGGDNYRPFCTEALPLLVRVIQSADSKTKENVNATENCISAVGKIMKFKPDCVNVEEVLPHWLSWLPLHEDKEEAVQTFNYLCDLIESNHPIVLGPNNTNLPKIFSIIAEGEMHEAIKHEDPCAKRLANVVRQVQTSGGLWTECIAQLSPEQQAAIQELLNSA

Assays:
[1] = target: BSB PyV-LTA;NLS peptide (Black Sea Bass polyomavirus large tumor antigen residues 660-683) (Black Sea Bass polyomavirus); test: fluorescence polarisation
[2] = substrate: BSB PyV-LTA;NLS peptide (Black Sea Bass polyomavirus large tumor antigen residues 660-683) (Black Sea Bass polyomavirus); test: fluorescence polarisation; remark: listed apart in the source

Molecule | binding [1] | binding [2]
human importin β2 (from UniProt Q92973 1-898) | binds weakly | –
human importin β1 (from UniProt Q14974 1-876) | binds weakly | –
B1 | – | binds weakly
